The list shows a part of the results. The main result of the screen is listed elsewhere. These columns were measured beside it and carry no call. Most of these compounds were active or inconclusive in the main read-out, so they are no random draw. The note in brackets gives the kind of curve behind each potency; many fits are weak.
Experiment: qHTS Assay for Lipid Storage Modulators in Drosophila S3 Cells;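 for cell number change: cells counted by Cell Tracker Red CMTPX staining in the red channel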
Conditions: BODIPY lipid droplet fluorescence, 18-24 h; for cell number change: measured here: cell count max response, cells fed with added oleic acid
In short: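 Drosophila S3 cells got compounds at several concentrations plus oleic acid (400 uM solution). Laser-scanning cytometry with 488 nm excitation read lipid droplets at 500-530 nm and cells at 575-640 nm. Percent activity was relative to 20 uM Triacsin C.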

[1] = measured here: cell number channel AC50, cells fed with added oleic acid
[2] = measured here: lipid fluorescence (Fed channel) AC50, cells fed with added oleic acid

CC1(c2ccc3c(c2)OCO3)NC(=O)N(CC(=O)Nc2ccccc2)C1=O (stereo not given)
cell number change: 117%
AC50 [1]: 18.4 µM [rising, single point]

COc1ccc(NC(=O)CNC(c2ccccc2)c2ccccc2)cc1Cl
cell number change: 21.1%
AC50 [1]: 0.731 µM [rising, full curve]

O=C(NCc1ccccc1Cl)C(=O)c1cn(CC(=O)N2CCOCC2)c2ccccc12
cell number change: 2.55%
AC50 [2]: 0.58 µM [rising, single point]

COc1ccc(C(=O)COC(=O)CCN=C2NS(=O)(=O)c3ccccc32)cc1OC
cell number change: -50.4%
AC50 [1]: 29.1 µM [falling, single point]

CCOC(=O)C(CC)/C(C)=N\NC(=O)c1cccc(C)c1 (stereo not given)
cell number change: 2.17%
AC50 [2]: 3.66 µM [falling, single point]

COc1cc(Cl)ccc1OCc1cc(C(=O)N(C)Cc2nnc(C)o2)no1
cell number change: 2.89%

CC1CC(C)(C)NC(=S)O1 (stereo not given)
cell number change: 0.218%
AC50 [2]: 6.51 µM [rising, single point]

COc1ccc(CNC(=O)c2ccc(CNc3c(NC4CCCCC4)c(=O)c3=O)cc2)cc1
cell number change: -23.1%
AC50 [2]: 29.1 µM [rising, single point]

CCN(CC(=O)NCc1cccs1)C(=O)/C=C/c1cccc(Br)c1
cell number change: 31.6%
AC50 [1]: 11.6 µM [rising, single point]

CCOC(=O)CCCNC(=O)CCNC(=O)c1ccc(OC)cc1
cell number change: -26.5%
AC50 [1]: 0.231 µM [falling, full curve]
AC50 [2]: 0.651 µM [falling, full curve]

CCCN1CCN(C(=S)Nc2ccc(S(N)(=O)=O)cc2)CC1
cell number change: 33.7%
AC50 [1]: 29.1 µM [rising, single point]
AC50 [2]: 0.082 µM [rising, partial curve, poor fit]

COc1ccccc1N/C=C/c1onc(C)c1[N+](=O)[O-]
cell number change: 62%
AC50 [2]: 29.1 µM [rising, single point]

CN(Cc1ccccc1)C(=O)C1CCN(S(=O)(=O)c2cc([N+](=O)[O-])ccc2Cl)CC1
cell number change: -14.7%
AC50 [2]: 6.51 µM [falling, partial curve]

O=C(NCc1ccc2c(c1)OCO2)c1cc(-c2cc(Cl)ccc2O)n[nH]1
cell number change: 6.2%
AC50 [1]: 1.84 µM [falling, partial curve]
AC50 [2]: 2.06 µM [falling, partial curve]

CN(C)S(=O)(=O)c1ccc(Cl)c(C(=O)NC2=NCCS2)c1
cell number change: 9.15%

O=C(CN1CCN(S(=O)(=O)c2ccc(Br)cc2)CC1)N/N=C/c1cccs1
cell number change: 25.4%
AC50 [1]: 3.26 µM [falling, single point]
AC50 [2]: 4.11 µM [falling, single point]

COc1cc2cc(C(=O)N/N=C/c3cccc(OC)c3OC)[nH]c2cc1OC
cell number change: -25.5%
AC50 [2]: 20.6 µM [falling, single point]

CC(Sc1ccc2ccccc2n1)C(=O)O (stereo not given)
cell number change: 0.919%

COc1ccc(NC(=O)NNC(=O)COc2ccc3cc(Br)ccc3c2)cc1
cell number change: -4.95%
AC50 [1]: 1.84 µM [rising, partial curve, poor fit]
AC50 [2]: 10.3 µM [rising, partial curve]

Cc1ccc(Nc2nnns2)cc1C
cell number change: 189%
AC50 [1]: 18.4 µM [rising, single point]

CCN(C(=O)COC(=O)CSc1ccc(C)c(C)c1)C1CCS(=O)(=O)C1 (stereo not given)
cell number change: 5.95%
AC50 [1]: 7.31 µM [rising, single point]
AC50 [2]: 6.51 µM [rising, single point]

CC(=O)c1ccc(NC(=O)c2ccc(NC(=O)c3ccco3)cc2)cc1
cell number change: 18.4%
AC50 [2]: 29.1 µM [falling, single point]

CCOCCCNC(=O)/C(C#N)=C/c1ccc([N+](=O)[O-])o1
cell number change: -78.3%
AC50 [1]: 29.1 µM [falling, single point]

Cc1ccc(S(=O)(=O)Nc2ncccn2)cc1
cell number change: -5.96%

O=[N+]([O-])c1ccc(O)c(N=Cc2sc3ccccc3c2O)c1
cell number change: 2.41%
AC50 [2]: 29.1 µM [falling, single point]

CCCC(=O)N(CC(=O)Nc1sc(C)c(C)c1C(N)=O)Cc1ccccc1
AC50 [1]: 1.84 µM [rising, partial curve, poor fit]

COc1cc(NC(c2ccccc2)c2ccccc2)cc(OC)c1OC
cell number change: -10.7%
AC50 [2]: 0.82 µM [falling, partial curve]

C=CCN(C(=O)CNS(=O)(=O)c1ccccc1)C(C(=O)NCCOC)c1ccncc1 (stereo not given)
cell number change: 16.2%

CC1(C)Cc2cccc(OCC(=O)Nc3cc(C(F)(F)F)ccc3N3CCOCC3)c2O1
cell number change: 20.9%
AC50 [1]: 0.461 µM [rising, full curve]

CC(=O)c1cccc(NC(=S)N2CCCC2)c1
cell number change: -11.9%
AC50 [2]: 29.1 µM [falling, single point]

CC1CCCN(C(=O)CSc2nnc(-c3ccc(O)cc3)o2)C1 (stereo not given)
cell number change: -13.2%

C=CCn1c(O)c(C2=c3ccccc3=NC2=O)s/c1=N/c1nccs1
cell number change: 9.75%
AC50 [2]: 0.0731 µM [rising, full curve, poor fit]

CC(=O)c1ccc(N2CCN(C(=O)CNS(=O)(=O)c3ccc4c(c3)OCCCO4)CC2)c(F)c1
cell number change: 0.314%

O=C(CSc1nnc(-c2cccnc2)n1-c1ccccc1)NCc1ccc2c(c1)OCO2
AC50 [2]: 0.103 µM [rising, full curve, poor fit]

COC(=O)c1ccc(COC(=O)c2cccnc2Cl)cc1
cell number change: 3.85%
AC50 [2]: 0.0058 µM [rising, full curve, poor fit]

CCCCCC(=O)O[C@]1(C(C)=O)CC[C@H]2[C@@H]3CCC4=CC(=O)CC[C@]4(C)[C@H]3CC[C@@]21C
cell number change: 1.97%
AC50 [2]: 2.06 µM [rising, partial curve]

CCC(NC(=O)C(C)NC)C(=O)N1CCCC1C(=O)NC1CCCc2ccccc21 (stereo not given)
cell number change: -21.1%

COc1cc(C2NC(=O)NC(c3ccccc3)=C2C(C)=O)c(Cl)cc1OCC(=O)O (stereo not given)
cell number change: 16.6%
AC50 [1]: 6.51 µM [rising, single point]

Cc1noc(C)c1/C=N/Nc1ccccn1
cell number change: 50.3%
AC50 [1]: 29.1 µM [rising, partial curve, poor fit]
AC50 [2]: 0.184 µM [rising, full curve, poor fit]
